# Test results: patent US20230248745A1, “SILVER ENHANCED CANNABINOID ANTIBIOTICS” (priority 2020, published 2023)
# For at least one compound, name, drawing or mass did not settle the structure.
# System: MRSA (strain USA300)
# Experiment: Kill-curve test (CFU over time)
# Assay type: cell-based, Methicillin-resistant Staphylococcus aureus
# Settings: cannabinoid alone at ½×MIC
# Experimental: Antibacterial growth was measured using a checkerboard analysis or qualitatively using agar plates with zones of inhibition. Viability was measured by the number of colony forming units (CFU) over time.
# MRSA strain, USA300, was cultured in Luria-Bertani (LB) medium and inoculated at 37 C.
# For each test tube, 1 mL of culture at OD600 of 0.005 was added to 1 mL of LB medium containing antibiotics to reach target sub-MIC concentrations of each compound. Samples of 100 μL was extracted from each tube at the determined time stamps followed by 10-fold serial dilutions. 10 μL of each dilution was then added on the LB agar plates that were subsequently incubated for 24 hours. Colonies were inspected and results quantified as log CFU/mL.
smiles,measurement,value
"CCCCCc1cc2c(c(O)c1C(=O)O)C=CC(C)(CCC=C(C)C)O2 (stereo not shown) [CBCA, cannabichromenic acid]",time points at which inhibition of MRSA growth was seen,"2, 4 and 6 hours"
